The other results are listed elsewhere or left out.
molecular target: OsWRKY34 (Oryza sativa, UniProt Q0JBA9 1-250); assay: protein-binding microarray (RPBM); PBS, 2% BSA, 51.3 ng/ul salmon testes DNA, 50 uM zinc acetate, 200 nM TF, 25 C, 1 h; high values mean tight binding; conditions: protein: recombinant; tags: N-terminal polyhistidine and DsRed monomer fusion (pET32a); label: CyDye5-dUTP incorporated in the synthesized complementary strand; 3' TTTTT single-stranded linker to array surface; dsDNA, one strand shown
How it was run: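 Binding signal is defined as the fluorescence intensity of each feature in arbitrary units, read on an Axon 4000B scanner. Transcription factors with N-terminal polyhistidine and DsRed fusions came from E. coli BL21-CodonPlus and were purified on Ni–NTA. They were incubated at 200 nM for 1 h at 25 °C on a custom Agilent array that had been made double-stranded with Cy5-dUTP, with 50 µM zinc acetate present, and the array was washed.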

Chains of the proteins cited; added tags and fusions are not shown.
UniProt Q0JBA9, entry or part of it: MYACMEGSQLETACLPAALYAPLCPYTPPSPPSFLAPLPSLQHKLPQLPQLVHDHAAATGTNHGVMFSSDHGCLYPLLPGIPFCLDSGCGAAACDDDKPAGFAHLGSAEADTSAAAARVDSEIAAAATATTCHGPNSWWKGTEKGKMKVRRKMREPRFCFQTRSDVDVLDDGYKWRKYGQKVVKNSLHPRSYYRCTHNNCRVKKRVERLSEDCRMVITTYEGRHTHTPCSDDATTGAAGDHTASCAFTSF

Sequence | binding signal
ATCGTATTTCTGTCTAGTCCAGCGTCGCCTTAATTGGCCTCGGAGTCACCTAGTGCAG | 8640 fluorescence intensity (a.u.)
TCTCCTCCATCTCCTCGCTTCGTCCCGTTCACACCACCACCGGAGTCACCTAGTGCAG | 8970 fluorescence intensity (a.u.)
CCCATCGCCGTCCCCATCATCGCCGAGGTCGACCTCTACACGGAGTCACCTAGTGCAG | 9940 fluorescence intensity (a.u.)
TCGGTCAAACGTCCTCCGGCAGACGTTGACCACATTTCTGCGGAGTCACCTAGTGCAG | 14000 fluorescence intensity (a.u.)
AGCACTAGGAGTCGGTGTAAGTGCATCTCTCTCCTCTCTCCGGAGTCACCTAGTGCAG | 9690 fluorescence intensity (a.u.)
TCCTCCTGCTCCACCGCACTCTGCAGTCCGCACCCGCGCGCGGAGTCACCTAGTGCAG | 10700 fluorescence intensity (a.u.)
TGTACATGTCAGCTCATCTCACTCTCGACTACTTGGCTTCCGGAGTCACCTAGTGCAG | 8770 fluorescence intensity (a.u.)
ATTGACTTTTTTAAAAATGTTTGACCATTCGTCTTATTCACGGAGTCACCTAGTGCAG | 9010 fluorescence intensity (a.u.)
AATTTGGTCTCTACTTTCTTTTGTCATTGAAATGATGAATCGGAGTCACCTAGTGCAG | 8450 fluorescence intensity (a.u.)
TCATTGCTATCATCAGCTAGTGTATTTTTATTGGTTAACACGGAGTCACCTAGTGCAG | 9540 fluorescence intensity (a.u.)
TAACTCTTCTTTTAGTCTAAACCGTCATGATTTGGTCCATCGGAGTCACCTAGTGCAG | 8540 fluorescence intensity (a.u.)
GTCTATCAATCTGCATTTGACTAGCTTGCAGCTAGCACTTCGGAGTCACCTAGTGCAG | 8320 fluorescence intensity (a.u.)
TGACTCGTGTCAACATCTCATTTCACCATTTGTAACAGTTCGGAGTCACCTAGTGCAG | 8560 fluorescence intensity (a.u.)
ATCATTCTCCACGTACGCATGCCTCTCTTGCGTGTTATCGCGGAGTCACCTAGTGCAG | 8820 fluorescence intensity (a.u.)
GCTTTCTTCATGGTTTGTTTTTGGTAGCTATGGAACCACGCGGAGTCACCTAGTGCAG | 11100 fluorescence intensity (a.u.)
ATCTGGAATCCAACGCCTGACCTCGCCGCGCGGCGGCATGCGGAGTCACCTAGTGCAG | 8610 fluorescence intensity (a.u.)
CAATGAGAATTACTCATCTCTCTCCCTCTCGTTTCATTCTCGGAGTCACCTAGTGCAG | 9480 fluorescence intensity (a.u.)
GCTTATGCATTCTGCTGCACGTTTTGTTCACCAGTGGTTTCGGAGTCACCTAGTGCAG | 9410 fluorescence intensity (a.u.)
GATGAACGGTCAAACATGTTAAAAAAGTCAACGACGTTACCGGAGTCACCTAGTGCAG | 13200 fluorescence intensity (a.u.)
GGATCTGGGCGTTGACTTGTCAACGACAGATATTTCTTGGCGGAGTCACCTAGTGCAG | 8790 fluorescence intensity (a.u.)
ACGTGGTACAATTCTGACTCTTTCTGTAAATAGTAAATGGCGGAGTCACCTAGTGCAG | 8550 fluorescence intensity (a.u.)

Sequence | binding signal
CGCTTTTCCGAACCCTTTCCATTTTTTCCACCCACACAGCCGGAGTCACCTAGTGCAG | 10200 fluorescence intensity (a.u.)
GAGCTTTCTGCTTGTCTCTTCCCATGTCTTCTTGTACTCCCGGAGTCACCTAGTGCAG | 8390 fluorescence intensity (a.u.)
GGATCCATGCCCGGGCCTCCACCCTCGTCAGCTCTGTTGACGGAGTCACCTAGTGCAG | 8800 fluorescence intensity (a.u.)
ATCCATGTTTACCTCCAATATTTTTCCACATGAATAAAAACGGAGTCACCTAGTGCAG | 9660 fluorescence intensity (a.u.)
GGCCGCCACCTCGCTTTCCACCACCCTAGCAATCACCAGACGGAGTCACCTAGTGCAG | 8550 fluorescence intensity (a.u.)
TTCCTCCGTCTGCGTGCCGGCTTCTGTCTTCCTCCGCGCGCGGAGTCACCTAGTGCAG | 17300 fluorescence intensity (a.u.)
CACATCAAATTTATTTTCTCCCAAAATGAGGCGCGCAACACGGAGTCACCTAGTGCAG | 8670 fluorescence intensity (a.u.)
ACTCCAATTTTTGTCATCTATTGACCTTTGGCCATATTTTCGGAGTCACCTAGTGCAG | 11900 fluorescence intensity (a.u.)
TCACCGATATGTGTTTCTTCCTTGTTGAATTGTCTATGTCCGGAGTCACCTAGTGCAG | 13900 fluorescence intensity (a.u.)
CCGTATCCTTGCAACGCGGGCGCCGCGCGTTCCACTCTCTCGGAGTCACCTAGTGCAG | 9510 fluorescence intensity (a.u.)
ATGGTCAACCGTATTGTATTGTCACGAGCGCAACATATCACGGAGTCACCTAGTGCAG | 9020 fluorescence intensity (a.u.)
ACGTCACCCCGCCTTTACTCGCTTTCTCCGTTCTCCCTAGCGGAGTCACCTAGTGCAG | 10800 fluorescence intensity (a.u.)
CTTTTCTGGACTCTCATGTCTCATTGCTTTACACCATTGTCGGAGTCACCTAGTGCAG | 10900 fluorescence intensity (a.u.)
ATTTTAGGAGCACTGCATCCACAGTGGATCCCCGAATTGTCGGAGTCACCTAGTGCAG | 8370 fluorescence intensity (a.u.)
CCCCACCCCGCTCCTGCCTTCTAGGAGGGGCTGTTCCGCGCGGAGTCACCTAGTGCAG | 8390 fluorescence intensity (a.u.)
GCCCACATGTCAGCAACTCAAAGTCCGCCGCCATTTTCTTCGGAGTCACCTAGTGCAG | 11000 fluorescence intensity (a.u.)
TTGACTATAACCGGTCCACGCCGTGACCGCCACCGGCTGCCGGAGTCACCTAGTGCAG | 9630 fluorescence intensity (a.u.)
GTTTTAATCCCTATCATGCAAACATCCTCGGCTAACCATCCGGAGTCACCTAGTGCAG | 8970 fluorescence intensity (a.u.)
CCGCTGACTTTTTTATATATAAGTCAAGGTGCTGTTTGGACGGAGTCACCTAGTGCAG | 10100 fluorescence intensity (a.u.)
CTTTCTTAATCTAATTTGTGTTTTCTTGACTGTCACGTGCCGGAGTCACCTAGTGCAG | 8710 fluorescence intensity (a.u.)
GACTTGGCCACATCGTTCACACACTTCACTCACACGAGAGCGGAGTCACCTAGTGCAG | 9130 fluorescence intensity (a.u.)

Sequence | binding signal
CTACCGTTTCGCTTTTTCCTCTTATATGCCGGGGCTGTATCGGAGTCACCTAGTGCAG | 8660 fluorescence intensity (a.u.)
GTCCTTTCAGTCTGTGTCTCGTCATCGCGGCGGTATAAATCGGAGTCACCTAGTGCAG | 8680 fluorescence intensity (a.u.)
ATTATTATCTTGGTCGTACTGTGGAAATGGGTTTGGGAGGCGGAGTCACCTAGTGCAG | 10100 fluorescence intensity (a.u.)
CGTAATTGCATCTCTATTTTCATCTCTACTTCATTTCTCTCGGAGTCACCTAGTGCAG | 9260 fluorescence intensity (a.u.)
CCCTCCGCCGCGCCGGCCATGCGCTCTTTGCGCATCCTCTCGGAGTCACCTAGTGCAG | 9340 fluorescence intensity (a.u.)
ATTCATTTATTTTGTTGTTTCTTATGTGTGCGTTAATGAACGGAGTCACCTAGTGCAG | 8570 fluorescence intensity (a.u.)
ATTCCACTCTCCTGCAAGGCAGTCCCATGTGAGTTATCCACGGAGTCACCTAGTGCAG | 8580 fluorescence intensity (a.u.)
GGTCGAGATATCTGGTTTTGTAGTTTAGGGTCATGGTTTACGGAGTCACCTAGTGCAG | 11000 fluorescence intensity (a.u.)
CGATTCGAAATCTGCCACGCTTTATTCCCGCCATCTCATTCGGAGTCACCTAGTGCAG | 10300 fluorescence intensity (a.u.)
CTCTCGTCTCTCTTCACCTCATCCATATATGCATGTATGTCGGAGTCACCTAGTGCAG | 9080 fluorescence intensity (a.u.)
CACACCGACCAGTACTTGTTCTTTACTCAACTTACTCCAACGGAGTCACCTAGTGCAG | 10300 fluorescence intensity (a.u.)
TACGTTCATACCAACTTATTTATTTATATCGAACTTATCTCGGAGTCACCTAGTGCAG | 8720 fluorescence intensity (a.u.)
GTCGTAGTTAATTTTTGGCATGACGTTGACCATTTATCTACGGAGTCACCTAGTGCAG | 8760 fluorescence intensity (a.u.)
ATCATCCTCGCTTTCCGATTATTCTTCATCGCTAAACTCACGGAGTCACCTAGTGCAG | 8490 fluorescence intensity (a.u.)
CCGCCGCCGCCACCGCCGCCGCCATGGCCGCCGCCGCCGCCGGAGTCACCTAGTGCAG | 9190 fluorescence intensity (a.u.)
CAAGCTGCATGCCCAGCTGCACCTCTCTGTCTCTCCGATCCGGAGTCACCTAGTGCAG | 8460 fluorescence intensity (a.u.)
CACAGTACACCCGGCCCCAAGCTTTTGCTTAATTCGCACTCGGAGTCACCTAGTGCAG | 8180 fluorescence intensity (a.u.)
TCATCTATTTTTTTTGTAAAACAACTTTTCAACTTCTTATCGGAGTCACCTAGTGCAG | 8020 fluorescence intensity (a.u.)
ATGTTGTTTGTTATGATGCTGTTCTTTTGTTGTTGTTTACCGGAGTCACCTAGTGCAG | 11700 fluorescence intensity (a.u.)
ACAATGGTTGTCAATAGTGGTCTCTTAACGTCGCTAACTACGGAGTCACCTAGTGCAG | 10800 fluorescence intensity (a.u.)
AATGTATGACACCGTTGACTTCTTGACCAACGTTTAACCACGGAGTCACCTAGTGCAG | 18700 fluorescence intensity (a.u.)

Fetched one by one from the list above:
Sequence | binding signal
CCCTCCGCCGCGCCGGCCATGCGCTCTTTGCGCATCCTCTCGGAGTCACCTAGTGCAG | 9340 fluorescence intensity (a.u.)
ATTCATTTATTTTGTTGTTTCTTATGTGTGCGTTAATGAACGGAGTCACCTAGTGCAG | 8570 fluorescence intensity (a.u.)
CAAGCTGCATGCCCAGCTGCACCTCTCTGTCTCTCCGATCCGGAGTCACCTAGTGCAG | 8460 fluorescence intensity (a.u.)

The list goes on:

Sequence | binding signal
GTACGAAAGGGGTGGGTACACCATGGTTGGGGAGGTTGAACGGAGTCACCTAGTGCAG | 13200 fluorescence intensity (a.u.)
ATTTTACATGATTTATCTTTTTTATATTTTTGCTATTAATCGGAGTCACCTAGTGCAG | 8110 fluorescence intensity (a.u.)
TTGTCGTCGTGGTCTTCTCTTAGATTATTATTATTATTATCGGAGTCACCTAGTGCAG | 10400 fluorescence intensity (a.u.)
GGGTTTGCTCGCTTTTTTTATGTTGCGGCGATGGCGACGGCGGAGTCACCTAGTGCAG | 8610 fluorescence intensity (a.u.)
AAAGAATTAAAGGTTAGTGGGTCTTTTGGGGTGGAGTGGACGGAGTCACCTAGTGCAG | 10300 fluorescence intensity (a.u.)
CATTGCAGCTTATTACACACGCCTCTTGGTTTCTTTTTCCCGGAGTCACCTAGTGCAG | 8480 fluorescence intensity (a.u.)
ACCGCCTCGCTTTTCCTTCTCCACCATTTCTCCTTGTCTCCGGAGTCACCTAGTGCAG | 9130 fluorescence intensity (a.u.)
GCGTGTTTTTCTACCCGATCGACCTTCTGATTTTGGCTATCGGAGTCACCTAGTGCAG | 11100 fluorescence intensity (a.u.)
CCTATTGCTGTGTTTTCTCATCCCCACATTTCAAAGGAGCCGGAGTCACCTAGTGCAG | 9690 fluorescence intensity (a.u.)
CCGCTCCGTTTTGTGTCGTTTTGTGTATTTTCTCCACTCACGGAGTCACCTAGTGCAG | 17400 fluorescence intensity (a.u.)
AATACCCCGTTCTTCCGGTTAATTGCGTTCGAACCCTGTTCGGAGTCACCTAGTGCAG | 9390 fluorescence intensity (a.u.)
TAATTAGCTTTATTGTGTGGTGTGATGTTAAGTGTTTCTACGGAGTCACCTAGTGCAG | 8630 fluorescence intensity (a.u.)
ACTTCTATTTATCTTCAAACTTTAGTCATCTCTTTTTTTCCGGAGTCACCTAGTGCAG | 9070 fluorescence intensity (a.u.)
TAGTCTCTAGTCTCTACTGCTACTAGTACTGGTAATCTGCCGGAGTCACCTAGTGCAG | 8100 fluorescence intensity (a.u.)
CATAGAGCACTCTGGTTAACACGTTTCTCACGGCGCGCGCCGGAGTCACCTAGTGCAG | 9450 fluorescence intensity (a.u.)
TGTTTTTATCTCAGCTGTTGTTGTGGAAGAGCACATTTCGCGGAGTCACCTAGTGCAG | 8520 fluorescence intensity (a.u.)
CCACGGTTTCCCAGACTTGAAATTTGACCAAACCCAACCCCGGAGTCACCTAGTGCAG | 9690 fluorescence intensity (a.u.)
CCAGACGCACGAATGCATGACTCAGGTCCAGTTCTTTTCTCGGAGTCACCTAGTGCAG | 9850 fluorescence intensity (a.u.)
TCAACCTCTACCACCGCACATCTCACATACTCATCTTTTTCGGAGTCACCTAGTGCAG | 9820 fluorescence intensity (a.u.)
GCCGCCTCCGCCTCCGGCCTCGTTCCTCACCGGCGGCGGCCGGAGTCACCTAGTGCAG | 8300 fluorescence intensity (a.u.)
TGGTGTGGTTTAGTTAACCTGCCCCGAAATCCTTCTCTCTCGGAGTCACCTAGTGCAG | 9520 fluorescence intensity (a.u.)
